Some entries share one result that the patent states for a list of compounds.
Experiments:
Type in all cases: in vivo
[1] = system: fall armyworm (Spodoptera frugiperda); assay: Test A: control of fall armyworm, foliar spray on corn; details: sprayed at 50 ppm, visually assessed after 6 days
[2] = system: tobacco budworm (Heliothis virescens); assay: Test B: control of tobacco budworm, foliar spray on cotton; details: sprayed at 50 ppm, visually rated after 6 days
[3] = system: beet armyworm (Spodoptera exigua); assay: Test C: control of beet armyworm, foliar spray on corn; details: sprayed at 50 ppm, visually rated after 6 days

Measured: feeding damage (excellent levels of plant protection)

CCCNC(=O)c1cc([N+](=O)[O-])cc(C)c1NC(=O)c1cc(C(F)(F)F)nn1-c1ncccc1Cl [Compound 648]
≤ 10%: [1] | [2] | [3]

CNC(=O)c1cc([N+](=O)[O-])cc(C)c1NC(=O)c1cc(C(F)(F)F)nn1-c1ncccc1Cl [Compound 650]
≤ 10%: [1] | [2] | [3]

Cc1cc([N+](=O)[O-])cc(C(=O)NC(C)(C)C)c1NC(=O)c1cc(C(F)(F)F)nn1-c1ncccc1Cl [Compound 651]
≤ 10%: [1] | [2] | [3]

CN(C)NC(=O)c1cc(Cl)cc(Cl)c1NC(=O)c1cc(Cl)nn1-c1ncccc1Cl [Compound 655]
≤ 10%: [1] | [2] | [3]

CN(C)NC(=O)c1cc(Br)cc(Br)c1NC(=O)c1cc(Br)nn1-c1ncccc1Cl [Compound 656]
≤ 10%: [1] | [2] | [3]

CN(C)NC(=O)c1cc(Cl)cc(Cl)c1NC(=O)c1cc(Br)nn1-c1ncccc1Cl [Compound 657]
≤ 10%: [1] | [2] | [3]

Cc1cc([N+](=O)[O-])cc(C(=O)NN(C)C)c1NC(=O)c1cc(C(F)(F)F)nn1-c1ncccc1Cl [Compound 661]
≤ 10%: [1] | [2] | [3]

Cc1cc(Cl)cc(C(N)=O)c1NC(=O)c1cc(Br)nn1-c1ncccc1Cl [Compound 662]
≤ 10%: [1] | [2] | [3]

CCCN(CCC)C(=O)c1cc(Br)cc(C)c1NC(=O)c1cc(C(F)(F)F)nn1-c1ncccc1Cl [Compound 663]
≤ 10%: [1] | [2] | [3]

CCCNC(=O)c1cc(Br)cc(C)c1NC(=O)c1cc(C(F)(F)F)nn1-c1ncccc1Cl [Compound 664]
≤ 10%: [1] | [2] | [3]

CCN(CC)C(=O)c1cccc(Cl)c1NC(=O)c1cc(C(F)(F)F)nn1-c1ncccc1Cl [Compound 665]
≤ 10%: [1] | [2] | [3]

CCCN(CCC)C(=O)c1cc(Cl)cc(Cl)c1NC(=O)c1cc(Cl)nn1-c1ncccc1Cl [Compound 666]
≤ 10%: [1] | [2] | [3]

CCCNC(=O)c1cc(Cl)cc(Cl)c1NC(=O)c1cc(Cl)nn1-c1ncccc1Cl [Compound 667]
≤ 10%: [1] | [2] | [3]

CCOC(=O)CN(C)C(=O)c1cc(Cl)cc(Cl)c1NC(=O)c1cc(Br)nn1-c1ncccc1Cl [Compound 669]
≤ 10%: [1] | [2] | [3]

COC(=O)CNC(=O)c1cc(Br)cc(C)c1NC(=O)c1cc(C(F)(F)F)nn1-c1ncccc1Cl [Compound 671]
≤ 10%: [1] | [2] | [3]

CN(C)NC(=O)c1cc(Cl)cc(Cl)c1NC(=O)c1cc(C(F)(F)F)nn1-c1ncccc1Cl [Compound 672]
≤ 10%: [1] | [2] | [3]

CN(C)C(=O)c1cc(Cl)cc(Cl)c1NC(=O)c1cc(C(F)(F)F)nn1-c1ncccc1Cl [Compound 673]
≤ 10%: [1] | [2] | [3]

CCN(CC)C(=O)c1cc(Cl)cc(Cl)c1NC(=O)c1cc(C(F)(F)F)nn1-c1ncccc1Cl [Compound 674]
≤ 10%: [1] | [2] | [3]

CCOc1cc(C(=O)Nc2c(C)cc(Br)cc2C(=O)NC(C)C)n(-c2ncccc2Cl)n1 [Compound 678]
≤ 10%: [1] | [2] | [3]

CCOc1cc(C(=O)Nc2c(C)cc(Br)cc2C(=O)NC)n(-c2ncccc2Cl)n1 [Compound 679]
≤ 10%: [1] | [2] | [3]

CCOc1cc(C(=O)Nc2c(C)cc(Cl)cc2C(=O)NC(C)C)n(-c2ncccc2Cl)n1 [Compound 680]
≤ 10%: [1] | [2] | [3]

CCNC(=O)c1cc(Cl)cc(C)c1NC(=O)c1cc(OCC)nn1-c1ncccc1Cl [Compound 681]
≤ 10%: [1] | [2] | [3]

Cc1cc(Br)cc(C(=O)NC(C)C)c1NC(=O)c1cc(OCC(F)(F)F)nn1-c1ncccc1Cl [Compound 682]
≤ 10%: [1] | [2] | [3]

CNC(=O)c1cc(Br)cc(C)c1NC(=O)c1cc(OCC(F)(F)F)nn1-c1ncccc1Cl [Compound 683]
≤ 10%: [1] | [2] | [3]

Cc1cc(Cl)cc(C(=O)NC(C)C)c1NC(=O)c1cc(OCC(F)(F)F)nn1-c1ncccc1Cl [Compound 684]
≤ 10%: [1] | [2] | [3]

CCNC(=O)c1cc(Cl)cc(C)c1NC(=O)c1cc(OCC(F)(F)F)nn1-c1ncccc1Cl [Compound 685]
≤ 10%: [1] | [2] | [3]

CNC(=O)c1cc(Cl)cc(C)c1NC(=O)c1cc(OCC(F)(F)F)nn1-c1ncccc1Cl [Compound 686]
≤ 10%: [1] | [2] | [3]

CCNC(=O)c1cc(Br)cc(C)c1NC(=O)c1cc(OCC(F)(F)F)nn1-c1ncccc1Cl [Compound 687]
≤ 10%: [1] | [2] | [3]

Cc1cc(Br)cc(C(=O)NC(C)(C)C)c1NC(=O)c1cc(OCC(F)(F)F)nn1-c1ncccc1Cl [Compound 688]
≤ 10%: [1] | [2] | [3]

CN(C)C(=O)c1cc(Br)cc(Br)c1NC(=O)c1cc(C(F)(F)F)nn1-c1ncccc1Cl [Compound 691]
≤ 10%: [1] | [2] | [3]

Cc1cc(Cl)cc(C(=O)NC(C)C)c1NC(=O)c1cc(OC(F)(F)C(F)F)nn1-c1ncccc1Cl [Compound 692]
≤ 10%: [1] | [2] | [3]

CCNC(=O)c1cc(Cl)cc(C)c1NC(=O)c1cc(OC(F)(F)C(F)F)nn1-c1ncccc1Cl [Compound 693]
≤ 10%: [1] | [2] | [3]

CNC(=O)c1cc(Cl)cc(C)c1NC(=O)c1cc(OC(F)(F)C(F)F)nn1-c1ncccc1Cl [Compound 694]
≤ 10%: [1] | [2] | [3]

Cc1cc(Br)cc(C(=O)NC(C)C)c1NC(=O)c1cc(OC(F)(F)C(F)F)nn1-c1ncccc1Cl [Compound 695]
≤ 10%: [1] | [2] | [3]

CCNC(=O)c1cc(Br)cc(C)c1NC(=O)c1cc(OC(F)(F)C(F)F)nn1-c1ncccc1Cl [Compound 696]
≤ 10%: [1] | [2] | [3]

CNC(=O)c1cc(Br)cc(C)c1NC(=O)c1cc(OC(F)(F)C(F)F)nn1-c1ncccc1Cl [Compound 697]
≤ 10%: [1] | [2] | [3]

CN(C)C(=O)c1cc(Br)cc(Cl)c1NC(=O)c1cc(C(F)(F)F)nn1-c1ncccc1Cl [Compound 698]
≤ 10%: [1] | [2] | [3]

CCN(C)C(=O)c1cc(Br)cc(Cl)c1NC(=O)c1cc(C(F)(F)F)nn1-c1ncccc1Cl [Compound 699]
≤ 10%: [1] | [2] | [3]
